Measurements reported in PubChem BioAssay AID504847 (National Center for Advancing Translational Sciences (NCATS), 2011).
Values joined by “and” are separate entries in the source; they are usually repeats but may differ in a detail not shown here. Equal values may be shown once. Among all 400,000 compounds or so, about 3,700 (0.93%) were called active. The inconclusive results got no clear call from the source; some entries with a clear call stand among them for comparison. Calls follow the shape of the dose curve; as a rule, active = well fitted inhibition curve with a large enough effect; inconclusive = small, poorly fitted or top-dose-only effect, or another doubt; inactive = no such curve, though single readings can be large or run the other way. Where the call is inconclusive, the potency comes from a doubtful curve fit.
% is scaled to controls: 0 for no effect and ±100 for the full control effect; potency is read from the fitted curve at half-maximal effect.

The chains behind the UniProt entries cited, without tags or fusion partners.
UniProt P11473, whole entry, looked up: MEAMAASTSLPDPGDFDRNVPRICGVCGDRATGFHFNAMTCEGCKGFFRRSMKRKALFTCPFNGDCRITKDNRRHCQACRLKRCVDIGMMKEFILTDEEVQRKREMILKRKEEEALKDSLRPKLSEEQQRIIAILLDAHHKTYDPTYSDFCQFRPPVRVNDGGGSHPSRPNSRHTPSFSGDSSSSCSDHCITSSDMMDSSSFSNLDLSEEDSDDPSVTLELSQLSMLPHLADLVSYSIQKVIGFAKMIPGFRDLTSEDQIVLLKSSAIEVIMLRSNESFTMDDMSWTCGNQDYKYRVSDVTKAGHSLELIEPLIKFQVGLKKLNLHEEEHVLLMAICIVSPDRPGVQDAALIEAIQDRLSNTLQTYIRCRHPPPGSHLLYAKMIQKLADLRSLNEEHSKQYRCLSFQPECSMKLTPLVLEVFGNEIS

What follows are compounds tested against Vitamin D3 receptor (Homo sapiens) (UniProt P11473) (assay: Inhibitors of the vitamin D receptor (VDR): qHTS). Conditions: VDR-SRC2-3 peptide fluorescence polarization, 2 h; max response, negative = inhibition: stronger effect = lower value.
Outline: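 Two reagent solutions held at 4 deg C in the dark were dispensed, compounds pinned at 23 nl, and the mixture incubated 2 h at room temperature. Read-out: fluorescence polarization of VDR–SRC2-3 peptide binding.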
`CN1CCN(c2ncc3nc(CCc4ccccc4)c(=O)n(Cc4cccs4)c3n2)CC1` was tested, and the Potency was inconclusive: 89.1 µM [inhibitor, single point]. For `CCN(CC)S(=O)(=O)c1ccc2c(c1)nc(SCC(=O)N1CCOCC1)n2-c1ccccc1OC`, the max response, negative = inhibition was inactive: 4.35%. For `CC(=O)C1=C(O)C(=O)N(c2ccc(Br)cc2)C1c1ccc(Br)cc1` (centres undefined), the Potency was inconclusive: 89.1 µM [inhibitor, single point]. In the case of `CC(=O)c1ccc(-n2c(-c3cc(-c4ccco4)[nH]n3)n[nH]c2=S)cc1`, the Potency is reported as inconclusive: 1.41 µM [inhibitor, partial curve, poor fit]. `O=C(Cn1cnc2c(nc3n2CCCCC3)c1=O)Nc1ccc(F)c(Cl)c1` was tested, and the max response, negative = inhibition was inactive: -10.5%. `CC(OC(=O)CCN=C1NS(=O)(=O)c2ccccc21)C(=O)N(C)C1CCCCC1` (centres undefined) was tested, and the max response, negative = inhibition was inactive: -9.07%. In the case of `C/C(=C\C[Si](C)(C)C)CCC=O`, the max response, negative = inhibition is reported as inactive: -10.8%. In the case of `COc1ccccc1N(C(=O)c1snc(C(N)=O)c1N)C(C(=O)NC1CCCC1)c1ccco1` (centres undefined), the max response, negative = inhibition is reported as inactive: -6.75%. For `CCNC(=O)c1c(NC(=O)c2nc(S(=O)(=O)CC)ncc2Cl)sc2c1CCCC2`, the Potency was inconclusive: 15.8 µM [inhibitor, partial curve, poor fit]. With `O=C(O)c1cc(-c2ccc(-c3c(-c4ccc5c(c4)OCO5)noc3-c3ccsc3)cc2)nc2ccccc12` the Potency was inconclusive: 89.1 µM [inhibitor, partial curve, poor fit]. With `CCC(=O)Nc1cc(=O)[nH]c2nc(-c3ccc(Cl)cc3)nn12` the Potency was inconclusive: 39.8 µM [inhibitor, single point]. `O=C(O)CC1S/C(=N/N=C/c2ccc(-c3ccc(Cl)cc3[N+](=O)[O-])o2)NC1=O` (centres undefined) was tested, and the Potency was inconclusive: 12.6 µM [inhibitor, partial curve, poor fit]. In the case of `Cc1ccc(SC2=C(N(C)C)C(=O)c3ccccc3C2=O)cc1`, the Potency is reported as inconclusive: 79.4 µM [inhibitor, partial curve, poor fit]. `CC(C)CC1C(C#N)=C(N)Oc2n[nH]c(-c3cccs3)c21` (centres undefined) was tested, and the Potency was inconclusive: 79.4 µM [inhibitor, single point]. For `COc1ccccc1C1C(C(=O)c2ccc(C)o2)=C(O)C(=O)N1c1cc(C)on1` (centres undefined), the Potency was inconclusive: 100 µM [inhibitor, single point]. With `COC(=O)c1ccc(C2C(C(=O)c3cc4ccccc4o3)=C(O)C(=O)N2c2cc(C)on2)cc1` (centres undefined) the max response, negative = inhibition was inactive: -13.2%. `CCOC(=O)c1ccc(N=c2sc(C(=O)OC)cc(=O)n2-c2ccc(C(=O)OCC)cc2)cc1` was tested, and the Potency was inconclusive: 15.8 µM [inhibitor, full curve]. With `COc1cc(CO)ccc1OCC(=O)Nc1ccc(Br)cc1` the max response, negative = inhibition was inactive: -0.525%. For `Oc1ccc(NCc2ccc(OCc3ccccc3)cc2)cc1`, the Potency was active: 89.1 µM. For `COCCCNC(=O)C(=O)C1C(=O)Nc2ccccc21` (centres undefined), the max response, negative = inhibition was inactive: 14.1%. `CCOc1ccc(NC(=O)CCc2c(C)nc3cc(-c4ccc(Cl)cc4)nn3c2C)cc1` was tested, and the max response, negative = inhibition was inactive: -3.33%. With `CCOc1ccccc1C1N=C(c2ccc(OC)cc2)CC(c2ccccc2O)N1` (centres undefined) the Potency was inconclusive: 56.2 µM [inhibitor, partial curve, poor fit]. For `CC(=O)Nc1ccc(SCC(=O)c2cc(C)ccc2C)cc1`, the max response, negative = inhibition was inactive: -13.7%. In the case of `Cc1nc2ccccn2c1CN(C)C(=O)C1CCC(=O)N(CCc2cccc(F)c2)C1` (centres undefined), the max response, negative = inhibition is reported as inactive: -8.36%. For `CCOc1ccc2c(CC)cc(=O)oc2c1OCC`, the Potency was inconclusive: 100 µM [inhibitor, single point]. For `CCCN1CNc2c(c(=O)[nH]c(=S)n2CCCc2ccccc2)C1`, the Potency was inconclusive: 56.2 µM [inhibitor, partial curve, poor fit]. With `O=S(=O)(Nc1ccccc1F)c1cccc(NC(=S)NCCN2CCOCC2)c1` the Potency was active: 35.5 µM. With `COc1ccc(-c2ccc(OC(=O)NC3CCS(=O)(=O)C3)cc2)cc1` (centres undefined) the Potency was inconclusive: 89.1 µM [inhibitor, partial curve, poor fit]. For `CCCn1cc(S(=O)(=O)c2cccc(Cl)c2)c(=O)c2cc(F)c(N3CCCC3)cc21`, the max response, negative = inhibition was inactive: 10%. `Oc1ccc2ccccc2c1/C=N/n1cnnc1` was tested, and the max response, negative = inhibition was inactive: 20%. In the case of `CC1(C)CC(=O)C(C(=O)/C=C/c2ccco2)C(=O)C1`, the Potency is reported as inconclusive: 25.1 µM [inhibitor, partial curve]. In the case of `CC(C)N1CCN(Cc2cccs2)CC1CCO` (centres undefined), the Potency is reported as inconclusive: 25.1 µM [inhibitor, partial curve, poor fit]. In the case of `CC(=O)C[C@@H](O)CC(=O)[C@H]1OC(=O)CCCCCc2ccccc21`, the max response, negative = inhibition is reported as inactive: -16.1%. In the case of `CCOC(=O)N1CC=C2C(C#N)=C(N)C(C#N)(C#N)[C@H](c3ccsc3)[C@H]2C1`, the Potency is reported as inconclusive: 50.1 µM [inhibitor, partial curve]. For `O=C(c1cccs1)N1CCN(Cc2ccncc2)CC1`, the max response, negative = inhibition was inactive: -5.48%. `CC(=O)n1cc(N(C(=O)CCl)c2ccc(Cl)cc2)c2ccccc21` was tested, and the Potency was active: 50.1 µM. With `COc1ccc(C(=O)NCc2nnc(SCC(=O)NC3CCCCC3)n2C)cc1` the max response, negative = inhibition was inactive: -18.4%. In the case of `C=CCNC(=O)C(=O)NCC(c1ccc2c(c1)OCO2)N1CCN(c2ccc(F)cc2)CC1` (centres undefined), the Potency is reported as inconclusive: 39.8 µM [inhibitor, single point]. In the case of `C/C(=C\C(=O)c1ccc(Cl)cc1Cl)N(C)C`, the Potency is reported as inconclusive: 56.2 µM [inhibitor, partial curve, poor fit]. In the case of `CCSc1ccccc1C(=O)NCc1cccnc1`, the max response, negative = inhibition is reported as inactive: -5.93%. In the case of `Cc1ccccc1C(=O)N1CCC2CC1c1cc(-c3ccc(F)cc3)ccc12` (centres undefined), the Potency is reported as inconclusive: 2.51 µM [inhibitor, full curve, poor fit]. With `COc1ccc(C(=O)c2ccccc2)cc1` the max response, negative = inhibition was inactive: 11.5%. For `O=C(O)CCC(=O)Nc1ccc(SSc2ccc(NC(=O)CCC(=O)O)cc2)cc1`, the Potency was inconclusive: 7.94 µM [inhibitor, full curve, poor fit]. For `NS(=O)(=O)c1ccc(CNC(=O)c2cc(-c3cccnc3)nc3ccccc23)cc1`, the Potency was inconclusive: 100 µM [inhibitor, single point]. `CCCc1nc2scc(-c3ccccc3)c2c(=O)n1N` was tested, and the max response, negative = inhibition was inactive: -1.9%. `Cc1ccc(Nc2nc(Nc3ccc(C)cc3)nc(SC3=NCCS3)n2)cc1` was tested, and the max response, negative = inhibition was inactive: 34.9%. For `COc1ccc(-n2ccn(CC(=O)Nc3ccc(C)cc3C)c(=O)c2=O)cc1`, the max response, negative = inhibition was inactive: 4.99%. In the case of `COc1ccccc1-n1c(=S)[nH]c2c(sc(=S)n2-c2ccccc2C)c1=O`, the Potency is reported as inconclusive: 100 µM [inhibitor, single point]. With `O=C(Cc1ccccc1)Nc1cccc(N2C(=O)C=CC2=O)c1` the Potency was inconclusive: 35.5 µM [inhibitor, full curve, poor fit]. In the case of `COc1ccc(OC)c(C2=Nn3c(nnc3C3CCCCC3)SC2)c1`, the Potency is reported as inconclusive: 70.8 µM [inhibitor, partial curve, poor fit]. In the case of `CSc1cccc(NC(=S)N(CCC(C)C)C2CCN(C(C)=O)CC2)c1`, the Potency is reported as inconclusive: 79.4 µM [inhibitor, partial curve, poor fit]. With `CCCc1cc(=O)oc2cc(OC(=O)CN3C(=O)NC4(CCCC4)C3=O)ccc12` the Potency was inconclusive: 100 µM [inhibitor, single point]. For `O=C(OC(C(=O)NCC1CCCO1)c1ccccc1F)c1ccco1` (centres undefined), the Potency was inconclusive: 89.1 µM [inhibitor, partial curve, poor fit]. For `CN=c1nc(-c2ccccc2)n(-c2ccccc2)s1`, the Potency was active: 20 µM and active: 22.4 µM and active: 50.1 µM. With `Cc1ccc2[nH]c(=O)cc(C(=O)OCC(=O)c3ccc(F)cc3)c2c1` the Potency was inconclusive: 100 µM [inhibitor, single point]. `COc1ccc(Cl)cc1NC(=O)CSc1nnc(Cc2cccn2C)n1-c1ccc(F)cc1` was tested, and the Potency was inconclusive: 100 µM [inhibitor, partial curve, poor fit]. `CC(C)(C)N(Cc1ccc2c(c1)OCO2)C(=O)/C=C\S(=O)c1ccccc1` (centres undefined) was tested, and the Potency was active: 70.8 µM. For `Cc1ccc(OCC(=O)Nc2ccc(O)c(C(=O)O)c2)cc1C`, the max response, negative = inhibition was inactive: 20.4%. In the case of `COc1ccc2oc(=O)c(-c3nnc(N)s3)cc2c1`, the max response, negative = inhibition is reported as inactive: 1.68%. With `Cc1ccc(NC(=O)CN2C(=O)CC(c3ccc(C)c(C)c3)=Nc3ccccc32)cc1` the max response, negative = inhibition was inactive: 3.04%. For `COc1ccc(-c2noc(COC(=O)c3ccco3)n2)cc1OC`, the max response, negative = inhibition was inactive: 7.99%. For `Cc1cc(C(=O)O)ccc1-c1ccc(/C=C2\NC(=O)N(Cc3ccccc3Cl)C2=O)o1`, the Potency was inconclusive: 70.8 µM [inhibitor, partial curve, poor fit]. With `O=c1ccc(/C=C/c2ccccc2)nn1Cc1ccccc1` the Potency was inconclusive: 22.4 µM [inhibitor, partial curve, poor fit]. With `O=C(/C(=C/c1cccc(Cl)c1)c1nc2ccccc2[nH]1)c1ccccc1` the Potency was active: 79.4 µM. For `N=C1CCC(=N)c2c1c(O)c1ccccc1c2O`, the Potency was inconclusive: 20 µM [inhibitor, full curve]. With `O=C(CSc1nc2ccccc2c(=O)[nH]1)N1CCOCC1` the max response, negative = inhibition was inactive: 22.1%. With `Cc1ccc(CS(=O)(=O)c2ncc(Cl)c(C(=O)Nc3ccc(OC(F)F)cc3)n2)cc1` the Potency was inconclusive: 14.1 µM [inhibitor, full curve, poor fit]. `O=[N+]([O-])c1ccc(O)c(-c2ccnc3cc(-c4ccccc4)nn23)c1` was tested, and the max response, negative = inhibition was inactive: 1.46%. `CCc1ccc(OCC2NCCc3cc(OC)c(OC)cc32)cc1` (centres undefined) was tested, and the max response, negative = inhibition was inactive: 0.194%.
